Measured values from PubChem BioAssay AID1347423 (Functional Genomics Laboratory (NCATS/FGL), 2020).
The whole screen tested about 52,000 sequences, of which about 210 (0.4%) were called active.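 Rule for the calls: active = gene whose silencing raises cell survival under the drug, median off-target-corrected z-score across its silencing RNAs 2 or more; inactive = the rest.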 This is one part of the list.

Test: Resistance to Poly (ADP-Ribose) Polymerase inhibitor: Gene Identification via Genome-wide siRNA Screen
Settings: mouse BRCA2 R2336H ES cells, olaparib, CellTiter-Glo viability; active compounds read high
In short: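 Genome-wide siRNA screen (3 siRNAs/gene, 20 nM) in mouse ES cells carrying hypomorphic BRCA2 R2336H; olaparib 500 nM added 48 h post-transfection, CellTiter-Glo viability 72 h later. Normalized to plate-median negative control; MAD z-scores, gene median, seed-adjusted.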

| Sequence | z-score |
| --- | --- |
| GGAUCUGUCUACUUUUCCUTT against 0610007P06Rik | inactive: 0.258 |
| GGUAGUUCUAUAGAUACUGTT against 2310015N21Rik | inactive: -0.836 |
| GGUCUUUGAUGAAGAAGUGTT against 1700027N10Rik | inactive: 0.58 |
| GGCUUCAUUUUAAUAGUGATT against Zdhhc21 | inactive: -0.675 |
| GGAAGAUACUGUGGUUUAUTT against 6530406M24Rik | inactive: 0.22 |
| GGUUUGCAUUGUCGGCCAUTT against Gls2 | inactive: 0.391 |
| GGGUUUUGUUUUCCUUCUUTT against Usp39 | inactive: 2.51 |
| GAAGUGUGCCAAGGACUGUTT against Mt3 | inactive: -0.0923 |
| GGUGGUUUGAAAAAAGUCATT against Mycbpap | inactive: -0.734 |
| CGAGAAUAUGUGAGAGCUUTT against Gm83 | inactive: -2.45 |
| GGUCCAGGUGAUAAAUAUATT against 4921525H12 | inactive: -0.687 |
| GGUUGGAGAUCUCAUCUAUTT against Exosc3 | inactive: -2.1 |
| CCUGGUAGUCAGUUUUUGUTT against Lactb | inactive: 0.388 |
| GGCCAAUUUCUUCACUUCUTT against 2410006F12Rik | inactive: -1.66 |
| GCUUCUGAUAGAUCAUAAGTT against Aoc3 | inactive: 0.408 |
| GGUUGGAAACACAGCAAAATT against 2610528M18Rik | inactive: -0.642 |
| GGGCUUGAAGAAUAACAGATT against BC018222 | inactive: -0.64 |
| GCCCAGGUCUUGUUGACAATT against B930008A12Rik | inactive: -0.912 |
| CCACUAAGGUUUGAAGAAGTT against Nes | inactive: -0.763 |
| GGAUCCAGAGAUUCAAUUCTT against Vcam1 | inactive: 0.259 |
| GAAGAUCUUGAAGCUUACUTT against Commd4 | inactive: -0.711 |
| GGAUCAAACAAAUCAUCAATT against Plscr4 | inactive: 0.419 |
| GGUGGUCUACUUCACCGCATT against Xtrp3s1 | inactive: 0.383 |
| CGCACUGCCUCACUUUGAGTT against Gpr54 | inactive: -0.304 |
| GGUUUUAGGACACCUGGUUTT against Gys1 | inactive: 1.02 |
| CCUAUGACUGUAUGUUUUGTT against Hnrpr | inactive: 0.212 |

| Sequence | z-score |
| --- | --- |
| GGCUAUCAUCAAGAAGGCUTT against 4732497O03Rik | inactive: 0.819 |
| GCAUUCCUUGUCUGCUAUUTT against Fgd3 | inactive: -1.03 |
| GGUGUUUUCACACUGGAAGTT against 2700084L22Rik | inactive: 2.47 |
| GGAGUUAAGAAUAACCAAUTT against Epm2aip1 | inactive: -1.89 |
| GGAAAACCUGCCUAGGAAATT against Rad21 | inactive: -1.84 |
| GAGUCUUCUCUGCCUGUCUTT against Sprrl1 | inactive: -0.404 |
| GCAAGUAUGCCAUGAGAUUTT against BC049635 | inactive: -0.358 |
| GCGUGAGGUCUUGUCAUCATT against Foxn4 | inactive: -0.279 |
| GGAGCUGUUGAGUGUUUAUTT against Ngly1 | inactive: -0.641 |
| GGAUUUAUUGACCUCUUAATT against Sp8 | inactive: -1.99 |
| GGAAUGAGUUCCUUUAAAATT against Svs5 | inactive: 0.66 |
| GGCCAUCAAGAGUUUCUUUTT against Nr0b1 | inactive: -1.38 |
| GGCUUACAUUGACAUUAAATT against F5 | inactive: 0.782 |
| GGAUACCCUGCUUCCAAAATT against Hpd | inactive: -0.578 |
| GGUAUCAACAUCACGAUUCTT against Mrgpra1 | inactive: -0.112 |
| CCUACUGUCUAAGAAUACATT against Olfr1138 | inactive: -0.296 |
| GAUCUGGCUGCUUCUUACCTT against Porcn | inactive: -0.515 |
| GGAAAAUACAAGUCCAUUCTT against B4galt5 | inactive: -1.18 |
| GGUUGAAAUAGAGAUCAUATT against 9930032O22Rik | inactive: -0.118 |
| GGCAUUUGAGAAUAUUGAATT against Casq1 | inactive: 2.47 |
| GCGAAUCAUUGAGAACGGCTT against Dnajb8 | inactive: 0.808 |
| GGAUAUUUCAGUUGGCGGGTT against Lama2 | inactive: 0.843 |
| GGAGGACAACAGCAAAACATT against Atoh1 | inactive: 0.755 |
| GCAACGUGAUCCCUUCAUUTT against Slc26a7 | inactive: -0.599 |
| CGCGAGGAAGUCGAGGUAUTT against Pax2 | inactive: -0.971 |
| GCAUGGAAUCACGAAGUAGTT against BC003993 | inactive: -3.1 |

7 entries from above, as tab-separated lines.
Sequence	z-score
GGAGUUAAGAAUAACCAAUTT against Epm2aip1	inactive: -1.89
GGAAAACCUGCCUAGGAAATT against Rad21	inactive: -1.84
GAGUCUUCUCUGCCUGUCUTT against Sprrl1	inactive: -0.404
GCAAGUAUGCCAUGAGAUUTT against BC049635	inactive: -0.358
GCGUGAGGUCUUGUCAUCATT against Foxn4	inactive: -0.279
GGAGCUGUUGAGUGUUUAUTT against Ngly1	inactive: -0.641
GGAUUUAUUGACCUCUUAATT against Sp8	inactive: -1.99

(list continues)

| Sequence | z-score |
| --- | --- |
| GGAUCACCGGUUUCCGACUTT against Mgst2 | inactive: 0.306 |
| GCUACUUUGUCCGACUCUATT against Pigt | inactive: -2.03 |
| CGACUUCUGUUUAACUUAATT against Wdr26 | inactive: -0.257 |
| CCGCUUGCUCAUUGUAUCATT against Ruvbl2 | inactive: -2.06 |
| CCUGCCAAAAGUUGUGGAGTT against Uqcrc1 | inactive: 0.0563 |
| GGAAAAGACAUCAGAUGAATT against Mrpl1 | inactive: -1.1 |
| GGUGGUGGAGAAGAUAGGATT against Pax8 | inactive: 0.516 |
| GCUAUUGCCUUACUUUAAGTT against 4930518C23Rik | inactive: -0.107 |
| GGACUUAACAGCAACGCAGTT against Ndn | inactive: -1.13 |
| CGGUCAGGGUCCUAAAUAUTT against Txnl1 | inactive: -1.49 |
| CGUGAUCAGACACUUCACCTT against Olfr71 | inactive: -0.86 |
| GGAAAUACCCUUAUUUGUGTT against Asns | inactive: -1.36 |
| GGAGUUUGGCGAAGACCUATT against MGC27742 | inactive: -0.917 |
| GGCUGACAAUCCCAAUCUATT against 1500031H04Rik | inactive: -0.744 |
| GCUGUGACCCUUGUCCUUUTT against 2610009E16Rik | inactive: -0.678 |
| GGAGGAUCAAGCAAACUUUTT against A230097C02 | inactive: -0.207 |
| GGAGAACCGUAACAACAACTT against Cacna1a | inactive: 2.01 |
| CCUGAUUCCAAAUGUGUUUTT against Sgcb | inactive: 0.855 |
| GGAACAAAAAGUUUCCCUUTT against Dnaja3 | inactive: -2.2 |
| GGAAUCCACGUUCUAGAUUTT against Ptp4a2 | inactive: -0.364 |
| GCCAUGUGCACUGAAUAUATT against Gral | inactive: 0.895 |
| GCCUUAAUACUCACCAGGGTT against Zfp29 | inactive: 0.94 |
| GCAUUCAAACUGCUCACGUTT against Suclg2 | inactive: -0.401 |
| GGAUCACUGCUUACAAACGTT against Icam4 | inactive: 0.233 |
| GGAGGGAUAUGGAAACAAGTT against D330038O06 | inactive: -1.72 |
| CCAUGUCUUAGAAGAAGACTT against A730069N07Rik | inactive: -1.58 |

Laid out differently: entries from further up.
CGUGAUCAGACACUUCACCTT against Olfr71
  z-score: inactive: -0.86
GGAAAUACCCUUAUUUGUGTT against Asns
  z-score: inactive: -1.36

Next part:

| Sequence | z-score |
| --- | --- |
| GGCCCUGUUGCUAUGUGUUTT against Bpy2ip1 | inactive: 1.2 |
| AAUUCUGGACGAGGAGCAUTT against Abcc5 | inactive: 0.89 |
| GCAUCUCAAGGAUCUUCGGTT against Syngr4 | inactive: 0.302 |
| CCAUAAUAGAGGCAAUUACTT against BC030477 | inactive: -0.127 |
| CCCUGGGAGUUGAAUUGUUTT against Aqp6 | inactive: 1.98 |
| GGUGUUUACUUCCUCAGAATT against C80638 | inactive: -0.494 |
| GGCAACAGCAAUGACAUCCTT against Dbnl | inactive: -0.324 |
| GCUGGCCAAAUUCUGUGGUTT against Psph | inactive: 0.299 |
| CCUGAUCAAGGUGAAACGGTT against LOC547431 | inactive: -1.06 |
| GGAAAAAGAAAGAAGGUUCTT against 4930483J18Rik | inactive: -0.881 |
| GCCUUGUGUGCUGUCCUCUTT against Ly6g5c | inactive: 2.27 |
| GGUGAAUGCAAGAUCACCUTT against Myl1 | inactive: 0.107 |
| GGAGAAGACGGCUAAGCUCTT against D7Bwg0611e | inactive: -0.297 |
| GGAGGUAUUCAAGAUUUGATT against Sec10l1 | inactive: -1.14 |
| GGAGGAGCGGUUUUAUCAGTT against D0H8S2298E | inactive: 1.61 |
| CCCGUACAUUGAGUGCAAUTT against 6330403K07Rik | inactive: 2.67 |
| GGCAGCAGCAAGUUUCUUCTT against Rnpc1 | inactive: -0.0723 |
| GCGAGAUCACUUUCCAAUCTT against Ddr2 | inactive: 1.23 |
| GGUAUUCGAGCAGAUAUAUTT against 9130218O11Rik | inactive: 0.332 |
| GCUUUUCCGCUUCUACCGGTT against Nrp | inactive: 0.305 |
| GGUAGAACUUAUUGUGGACTT against Ly6f | inactive: -0.282 |
| GGAACUGUCAUGACAUUUCTT against Ddt | inactive: 0.0607 |
| GGAUGUGGUUCUUGAACAUTT against 3110023E09Rik | inactive: -0.289 |
| CGUAUACAAAUGUCCGGUATT against Itga11 | inactive: -0.122 |
| GGUAUUUUUACAUUCCCUUTT against Slc39a11 | inactive: -0.968 |
| GGGAGAGCGUAAGAUCUUUTT against Tln1 | inactive: -0.476 |
